Only a part is listed here, and it is no random draw.
compound: COC(=O)C#Cc1ccccc1 [methyl 3-phenylpropiolate]; test: log2 ratio of iodoacetamide-alkyne labeling of the cysteine site, DMSO over compound (competition); higher = stronger covalent engagement of the cysteine by the compound, active = 1 or more; conditions: 500 µM; treatment time 1 h; system: HEK293T cell lysate
How it was run: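 Reporter intensities give each cysteine's log2 competition ratio as the mean of control channels over the mean of compound channels. The samples were HEK293T lysate (2 mg/mL) given vehicle or electrophile (500 µM, 1 h, ambient temperature), then iodoacetamide alkyne (1 h), followed by click coupling to sCIP-TMT reagents, pooling, trypsin digestion overnight at 37 °C, streptavidin enrichment, acid elution, Orbitrap Eclipse LC-MS/MS with FAIMS and FragPipe quantification. Duplicate channels and three replicates were run, and cysteines quantified in only one replicate were discarded.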

Protein sequences, listed by entry. Tags and fused reporters are not part of them. Lines headed by an entry give the natural chain unless they say otherwise; changes in a name come on top.
UniProt Q8TF05: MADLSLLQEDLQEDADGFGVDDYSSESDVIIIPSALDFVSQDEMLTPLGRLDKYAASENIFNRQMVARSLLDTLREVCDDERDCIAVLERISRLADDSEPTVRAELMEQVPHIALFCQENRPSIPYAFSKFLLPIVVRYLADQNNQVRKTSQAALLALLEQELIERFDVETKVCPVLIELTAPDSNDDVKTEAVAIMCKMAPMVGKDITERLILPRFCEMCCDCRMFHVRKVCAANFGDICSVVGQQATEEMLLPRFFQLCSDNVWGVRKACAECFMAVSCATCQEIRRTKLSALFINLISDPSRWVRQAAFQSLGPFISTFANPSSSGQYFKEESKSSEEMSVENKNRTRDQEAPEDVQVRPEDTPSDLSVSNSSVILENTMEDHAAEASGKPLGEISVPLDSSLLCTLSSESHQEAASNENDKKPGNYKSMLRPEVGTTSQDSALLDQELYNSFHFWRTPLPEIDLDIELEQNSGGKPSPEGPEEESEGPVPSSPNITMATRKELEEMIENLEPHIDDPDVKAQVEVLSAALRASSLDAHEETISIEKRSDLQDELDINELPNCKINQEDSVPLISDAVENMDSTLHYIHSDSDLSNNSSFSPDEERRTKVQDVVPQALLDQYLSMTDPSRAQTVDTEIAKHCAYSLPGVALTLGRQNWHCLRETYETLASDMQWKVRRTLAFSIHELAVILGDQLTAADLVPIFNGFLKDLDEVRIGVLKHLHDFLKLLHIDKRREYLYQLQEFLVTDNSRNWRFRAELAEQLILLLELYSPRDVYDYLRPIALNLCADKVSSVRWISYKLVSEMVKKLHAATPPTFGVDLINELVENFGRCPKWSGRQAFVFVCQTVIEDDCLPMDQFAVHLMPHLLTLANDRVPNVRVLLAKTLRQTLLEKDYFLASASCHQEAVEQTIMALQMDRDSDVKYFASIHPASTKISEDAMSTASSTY
UniProt Q8N4M1: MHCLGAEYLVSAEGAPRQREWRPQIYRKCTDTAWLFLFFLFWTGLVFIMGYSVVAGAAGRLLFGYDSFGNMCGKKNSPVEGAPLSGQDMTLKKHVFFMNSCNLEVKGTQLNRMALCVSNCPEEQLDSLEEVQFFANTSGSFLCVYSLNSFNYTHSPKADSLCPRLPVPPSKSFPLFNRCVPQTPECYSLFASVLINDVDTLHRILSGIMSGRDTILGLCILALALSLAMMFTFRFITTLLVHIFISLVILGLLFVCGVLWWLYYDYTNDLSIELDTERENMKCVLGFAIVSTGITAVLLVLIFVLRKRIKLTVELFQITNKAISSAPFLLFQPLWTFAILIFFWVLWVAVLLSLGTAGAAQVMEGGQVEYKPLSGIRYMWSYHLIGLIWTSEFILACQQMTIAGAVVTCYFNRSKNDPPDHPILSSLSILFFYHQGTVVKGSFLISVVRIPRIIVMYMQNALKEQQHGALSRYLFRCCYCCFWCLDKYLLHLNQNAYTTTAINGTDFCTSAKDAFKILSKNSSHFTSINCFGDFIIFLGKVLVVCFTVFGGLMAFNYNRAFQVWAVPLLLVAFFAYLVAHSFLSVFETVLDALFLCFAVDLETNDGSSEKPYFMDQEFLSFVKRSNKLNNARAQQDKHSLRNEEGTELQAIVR
UniProt Q8TDD1, whole entry, looked up: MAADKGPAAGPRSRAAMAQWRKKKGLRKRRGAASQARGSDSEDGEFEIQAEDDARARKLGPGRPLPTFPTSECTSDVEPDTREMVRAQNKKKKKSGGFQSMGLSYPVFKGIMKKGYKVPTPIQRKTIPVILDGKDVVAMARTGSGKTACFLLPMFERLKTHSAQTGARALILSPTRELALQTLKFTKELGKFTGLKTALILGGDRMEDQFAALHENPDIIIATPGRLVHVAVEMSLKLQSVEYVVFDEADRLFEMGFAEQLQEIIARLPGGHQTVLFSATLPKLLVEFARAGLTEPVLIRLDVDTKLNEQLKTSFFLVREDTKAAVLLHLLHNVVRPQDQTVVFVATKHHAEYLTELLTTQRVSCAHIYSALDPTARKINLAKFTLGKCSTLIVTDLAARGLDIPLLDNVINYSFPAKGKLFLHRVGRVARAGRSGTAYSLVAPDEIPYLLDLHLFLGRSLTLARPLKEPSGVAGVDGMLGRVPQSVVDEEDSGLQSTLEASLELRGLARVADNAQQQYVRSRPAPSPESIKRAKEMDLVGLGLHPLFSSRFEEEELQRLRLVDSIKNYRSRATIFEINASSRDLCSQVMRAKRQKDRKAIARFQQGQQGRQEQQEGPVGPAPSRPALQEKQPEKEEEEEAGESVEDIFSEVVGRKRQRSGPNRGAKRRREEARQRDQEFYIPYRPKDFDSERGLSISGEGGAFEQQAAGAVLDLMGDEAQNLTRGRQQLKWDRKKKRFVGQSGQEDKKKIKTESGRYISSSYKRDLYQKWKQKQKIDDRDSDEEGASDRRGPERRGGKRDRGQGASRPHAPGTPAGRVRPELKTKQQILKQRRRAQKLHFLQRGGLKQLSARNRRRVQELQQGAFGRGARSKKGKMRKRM
UniProt Q8N2F6: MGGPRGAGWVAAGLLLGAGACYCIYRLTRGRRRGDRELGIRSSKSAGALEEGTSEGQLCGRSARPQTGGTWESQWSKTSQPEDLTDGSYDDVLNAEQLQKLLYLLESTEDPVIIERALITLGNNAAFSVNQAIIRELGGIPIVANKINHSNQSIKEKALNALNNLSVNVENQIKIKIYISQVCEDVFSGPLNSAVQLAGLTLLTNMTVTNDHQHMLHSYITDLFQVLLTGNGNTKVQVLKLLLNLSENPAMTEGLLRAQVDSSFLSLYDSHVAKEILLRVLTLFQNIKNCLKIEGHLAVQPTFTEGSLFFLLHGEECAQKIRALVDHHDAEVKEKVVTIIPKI
UniProt Q8WUB8: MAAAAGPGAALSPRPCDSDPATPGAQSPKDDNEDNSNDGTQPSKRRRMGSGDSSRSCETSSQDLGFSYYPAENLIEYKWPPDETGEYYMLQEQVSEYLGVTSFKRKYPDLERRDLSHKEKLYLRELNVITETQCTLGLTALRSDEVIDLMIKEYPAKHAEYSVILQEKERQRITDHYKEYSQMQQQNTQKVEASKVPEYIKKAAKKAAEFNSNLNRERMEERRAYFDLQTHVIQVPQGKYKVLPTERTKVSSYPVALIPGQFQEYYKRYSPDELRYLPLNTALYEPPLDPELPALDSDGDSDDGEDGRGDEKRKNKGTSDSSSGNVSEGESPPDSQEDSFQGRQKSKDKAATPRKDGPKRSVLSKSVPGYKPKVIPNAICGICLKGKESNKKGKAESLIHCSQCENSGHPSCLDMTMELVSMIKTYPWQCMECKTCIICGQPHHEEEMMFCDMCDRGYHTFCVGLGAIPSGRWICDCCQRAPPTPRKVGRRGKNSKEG
UniProt Q8N122, whole entry, looked up: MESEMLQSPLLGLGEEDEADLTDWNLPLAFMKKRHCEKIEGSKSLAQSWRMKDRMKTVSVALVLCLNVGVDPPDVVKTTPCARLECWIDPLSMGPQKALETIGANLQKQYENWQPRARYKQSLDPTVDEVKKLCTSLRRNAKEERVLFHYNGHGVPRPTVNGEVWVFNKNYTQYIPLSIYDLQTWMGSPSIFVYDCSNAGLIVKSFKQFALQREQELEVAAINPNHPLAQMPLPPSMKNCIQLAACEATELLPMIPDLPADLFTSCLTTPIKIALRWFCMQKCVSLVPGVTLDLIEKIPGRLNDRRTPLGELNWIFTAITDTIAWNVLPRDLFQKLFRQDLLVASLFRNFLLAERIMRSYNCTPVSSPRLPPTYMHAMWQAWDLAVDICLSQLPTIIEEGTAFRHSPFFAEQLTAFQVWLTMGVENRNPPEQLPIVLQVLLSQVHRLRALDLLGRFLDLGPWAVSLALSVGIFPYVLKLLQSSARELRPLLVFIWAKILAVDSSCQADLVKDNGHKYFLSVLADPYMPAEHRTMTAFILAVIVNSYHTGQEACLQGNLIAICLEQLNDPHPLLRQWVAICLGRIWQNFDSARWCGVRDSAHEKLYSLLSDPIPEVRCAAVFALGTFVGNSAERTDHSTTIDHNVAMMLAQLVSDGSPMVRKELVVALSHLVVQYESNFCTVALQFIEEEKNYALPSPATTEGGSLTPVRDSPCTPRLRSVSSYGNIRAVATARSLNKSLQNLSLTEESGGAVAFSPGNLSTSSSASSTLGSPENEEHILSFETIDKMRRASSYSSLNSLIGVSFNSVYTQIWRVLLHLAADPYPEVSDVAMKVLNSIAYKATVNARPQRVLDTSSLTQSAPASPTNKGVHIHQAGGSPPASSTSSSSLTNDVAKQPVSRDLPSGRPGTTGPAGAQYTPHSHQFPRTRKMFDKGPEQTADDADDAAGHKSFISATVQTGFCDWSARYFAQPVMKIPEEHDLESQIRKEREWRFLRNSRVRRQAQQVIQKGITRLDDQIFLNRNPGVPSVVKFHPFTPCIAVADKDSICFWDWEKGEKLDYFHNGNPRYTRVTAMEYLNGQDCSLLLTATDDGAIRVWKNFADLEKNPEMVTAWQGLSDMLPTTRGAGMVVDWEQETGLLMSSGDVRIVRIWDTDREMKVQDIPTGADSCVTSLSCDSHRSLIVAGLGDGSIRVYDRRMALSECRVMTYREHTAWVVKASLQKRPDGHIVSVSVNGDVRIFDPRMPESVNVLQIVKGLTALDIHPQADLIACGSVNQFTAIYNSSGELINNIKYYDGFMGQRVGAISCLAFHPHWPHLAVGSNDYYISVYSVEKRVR
UniProt Q8WUM0: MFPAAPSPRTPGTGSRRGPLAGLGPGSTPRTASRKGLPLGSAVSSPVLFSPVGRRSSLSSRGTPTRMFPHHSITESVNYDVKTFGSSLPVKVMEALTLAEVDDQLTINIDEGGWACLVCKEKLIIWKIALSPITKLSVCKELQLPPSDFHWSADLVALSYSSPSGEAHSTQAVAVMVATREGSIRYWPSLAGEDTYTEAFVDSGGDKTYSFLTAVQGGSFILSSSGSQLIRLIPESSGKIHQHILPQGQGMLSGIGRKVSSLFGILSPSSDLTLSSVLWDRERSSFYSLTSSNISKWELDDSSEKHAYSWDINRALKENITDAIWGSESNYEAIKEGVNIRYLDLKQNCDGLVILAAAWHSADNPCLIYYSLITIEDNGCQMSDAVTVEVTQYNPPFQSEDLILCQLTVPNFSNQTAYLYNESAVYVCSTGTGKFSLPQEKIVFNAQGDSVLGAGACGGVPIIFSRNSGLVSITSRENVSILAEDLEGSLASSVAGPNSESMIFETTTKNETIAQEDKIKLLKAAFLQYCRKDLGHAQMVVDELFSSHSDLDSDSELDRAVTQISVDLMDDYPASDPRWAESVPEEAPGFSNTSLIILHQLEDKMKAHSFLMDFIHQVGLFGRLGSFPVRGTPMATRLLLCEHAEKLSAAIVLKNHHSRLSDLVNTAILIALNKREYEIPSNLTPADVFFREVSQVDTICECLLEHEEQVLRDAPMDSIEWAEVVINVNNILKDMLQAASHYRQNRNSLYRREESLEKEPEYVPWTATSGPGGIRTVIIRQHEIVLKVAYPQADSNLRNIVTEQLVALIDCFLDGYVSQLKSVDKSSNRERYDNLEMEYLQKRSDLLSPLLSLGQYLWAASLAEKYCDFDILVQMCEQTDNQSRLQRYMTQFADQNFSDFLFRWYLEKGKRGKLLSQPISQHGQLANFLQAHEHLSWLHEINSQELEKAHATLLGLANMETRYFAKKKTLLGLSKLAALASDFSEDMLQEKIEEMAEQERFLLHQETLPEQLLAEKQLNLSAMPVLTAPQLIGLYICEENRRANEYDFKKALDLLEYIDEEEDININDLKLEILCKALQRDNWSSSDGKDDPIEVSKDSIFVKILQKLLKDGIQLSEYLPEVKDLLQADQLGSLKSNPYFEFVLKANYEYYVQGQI
UniProt Q8TBC4: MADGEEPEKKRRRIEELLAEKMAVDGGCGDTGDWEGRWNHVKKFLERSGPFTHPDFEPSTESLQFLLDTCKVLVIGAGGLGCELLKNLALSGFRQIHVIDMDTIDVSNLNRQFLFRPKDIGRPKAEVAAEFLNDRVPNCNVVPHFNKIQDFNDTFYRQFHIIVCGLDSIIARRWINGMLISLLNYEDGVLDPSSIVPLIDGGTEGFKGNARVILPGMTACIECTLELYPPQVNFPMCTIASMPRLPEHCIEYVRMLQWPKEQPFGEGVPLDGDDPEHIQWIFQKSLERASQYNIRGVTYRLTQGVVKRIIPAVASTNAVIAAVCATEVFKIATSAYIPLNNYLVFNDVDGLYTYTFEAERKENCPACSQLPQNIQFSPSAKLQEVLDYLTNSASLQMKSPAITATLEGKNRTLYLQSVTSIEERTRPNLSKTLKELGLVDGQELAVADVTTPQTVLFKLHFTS
UniProt Q8N954: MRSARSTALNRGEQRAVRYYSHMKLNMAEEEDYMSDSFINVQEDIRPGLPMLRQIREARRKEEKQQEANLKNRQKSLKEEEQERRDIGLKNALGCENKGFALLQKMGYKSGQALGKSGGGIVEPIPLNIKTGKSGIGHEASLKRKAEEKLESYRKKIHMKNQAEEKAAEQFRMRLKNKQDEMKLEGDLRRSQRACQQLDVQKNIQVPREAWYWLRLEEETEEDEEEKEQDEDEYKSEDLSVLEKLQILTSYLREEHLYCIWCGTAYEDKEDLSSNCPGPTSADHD

log2 ratio of iodoacetamide-alkyne labeling, inactive:
UniProt Q8NI60_C641 0.356, PPP4R1 C566 (UniProt Q8TF05) 0.313, UniProt Q8N4M1_C3 0.519, NPLOC4 C188 (UniProt Q8TAT6) 0.0504, EXOC6 C66 (UniProt Q8TAG9) 0.0219, DDX51 C402 (UniProt Q8N8A6) 0.39, UniProt Q8NC60_C364 0.2, SEC14L1 C258 (UniProt Q92503) 0.208, DDX54 C389 (UniProt Q8TDD1) 0.101, NUP35 C255 (UniProt Q8NFH5) 0.901, ARMC10 C59 (UniProt Q8N2F6) 0.628, VPS37A C325 (UniProt Q8NEZ2) 0.476, RAPGEF6 C1293 (UniProt Q8TEU7) 0.707, UniProt Q8NC60_C505 -0.174, LSM14A C375 (UniProt Q8ND56) 0.671, PHF10 C383 (UniProt Q8WUB8) 0.137, RPTOR C36 (UniProt Q8N122) 0.416, UniProt Q8N163_C443 -0.254, PPP4R1 C78 (UniProt Q8TF05) -0.0473, NOC3L C683 (UniProt Q8WTT2) 0.191, NUP133 C700 (UniProt Q8WUM0) 0.279, UniProt Q8NBU5_C303 0.133, UniProt Q8NBU5_C310 0.405, TXNDC5 C89 (UniProt Q8NBS9) 0.232, EXOC6 C135 (UniProt Q8TAG9) 0.23, NCOA7 C439 (UniProt Q8NI08) 0.264, NPLOC4 C355 (UniProt Q8TAT6) 0.0783, UBA3 C28 (UniProt Q8TBC4) 0.199, FLAD1 C236 (UniProt Q8NFF5) 0.312, UniProt Q8N6R0_C273 0.102, UniProt Q8WVB3_C244 0.59, PARD3 C806 (UniProt Q8TEW0) 0.0738, EDARADD C154 (UniProt Q8WWZ3) -0.0663, CXorf38 C300 (UniProt Q8TB03) 0.0233, ENAH C7 (UniProt Q8N8S7) -0.0222, ZGPAT C377 (UniProt Q8N5A5) 0.342, UniProt Q8N954_C95 0.417

— the supplement of paper PMC11006884
